In the supplement of paper PMC3334620:
Whole data set: some 33,000 sequences, median “E-score (-0.5 to 0.5)” near -0.016, cut for the highest 2% near 0.3. This is one part of the list.

molecular target: T1, Yer184c (UniProt P39961); experiment: PBM E-score (8-mer binding enrichment) (E-score (-0.5 to 0.5)); higher = stronger / more preferred TF binding; conditions: protein concentration: 100 nM; construct: GST-full length
T1 sequence: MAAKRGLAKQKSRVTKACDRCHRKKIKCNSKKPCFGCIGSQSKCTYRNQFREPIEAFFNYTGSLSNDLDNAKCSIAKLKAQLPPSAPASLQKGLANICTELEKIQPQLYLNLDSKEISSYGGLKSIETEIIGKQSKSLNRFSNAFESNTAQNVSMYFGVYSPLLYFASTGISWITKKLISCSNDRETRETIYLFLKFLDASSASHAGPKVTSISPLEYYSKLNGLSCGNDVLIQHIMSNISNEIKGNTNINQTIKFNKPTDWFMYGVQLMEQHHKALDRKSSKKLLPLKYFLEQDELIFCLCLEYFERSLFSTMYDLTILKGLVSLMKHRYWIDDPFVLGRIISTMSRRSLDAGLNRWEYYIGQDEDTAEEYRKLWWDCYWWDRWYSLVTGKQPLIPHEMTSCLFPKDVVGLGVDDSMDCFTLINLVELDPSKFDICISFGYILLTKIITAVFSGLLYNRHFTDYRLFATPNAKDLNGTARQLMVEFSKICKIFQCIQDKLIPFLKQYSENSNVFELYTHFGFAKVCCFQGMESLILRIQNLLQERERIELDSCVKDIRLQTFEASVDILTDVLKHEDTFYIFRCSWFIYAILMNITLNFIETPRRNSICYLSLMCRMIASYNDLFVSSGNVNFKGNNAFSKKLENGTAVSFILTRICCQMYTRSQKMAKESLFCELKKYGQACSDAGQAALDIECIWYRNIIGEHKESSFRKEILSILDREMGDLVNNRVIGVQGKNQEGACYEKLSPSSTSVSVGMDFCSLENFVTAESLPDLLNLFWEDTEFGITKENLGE
Description: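 Universal 'all 10-mer' protein binding microarrays (Agilent AMADID 015681) probed with GST-tagged S. cerevisiae TFs (full-length or DBD) made by in vitro transcription/translation (PURExpress), about 100-200 nM. Bound TF was detected with fluorescent anti-GST. Each ungapped 8-mer (which stands for itself and its reverse complement) is scored by the PBM enrichment score (E-score), a modified Wilcoxon-Mann-Whitney statistic from -0.5 to +0.5, computed with the Universal PBM Analysis Suite. Scale: above 0.35 generally sequence-specific binding.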

| Sequence | PBM E-score |
| --- | --- |
| ACTCGAGC | -0.103 |
| AAATCGGT | 0.0224 |
| TAGGAGAA | -0.118 |
| AAACTGAG | -0.0387 |
| AACGATCA | -0.0294 |
| CAGTTAGC | -0.308 |
| GTGGCCGA | 0.123 |
| GTGGATTA | -0.0384 |
| AGCAGGAC | 0.00291 |
| CACTCAGA | 0.0188 |
| CCATAGTA | -0.0362 |
| AGTGAACG | -0.0272 |
| CTGCTACC | -0.153 |
| ATCGTGAC | 0.0587 |
| CAATTACC | -0.0806 |
| ATTCTCGA | 0.0246 |
| GCTTAGTA | 0.0166 |
| ATTTTATC | 0.193 |
| AGAGGCCC | -0.306 |
| AGCGATTC | -0.049 |
| GCCAACCC | -0.059 |
| GAGGTTAA | 0.00325 |
| ACTCCTTG | -0.197 |
| ACGCTACC | -0.246 |
| AAATACGA | 0.0747 |

| Sequence | PBM E-score |
| --- | --- |
| GCCATCGA | 0.0494 |
| CAGGAGGC | -0.189 |
| CACGAGGC | 0.0429 |
| CGGCAAAA | 0.152 |
| CGGTCGTA | -0.0403 |
| GCAAAAGC | 0.0874 |
| GGGGTCCA | -0.319 |
| CAAGGTAG | -0.161 |
| ACGAGGCA | -0.161 |
| ATCTAAAT | 0.211 |
| CTTCGGTC | 0.309 |
| CTTTCGCA | -0.104 |
| AACTAAAC | -0.015 |
| CGCCGGAG | 0.222 |
| CGTGTGAG | -0.101 |
| CATCGACC | 0.00819 |
| GAATGATA | 0.301 |
| AAAACTCA | 0.229 |
| ACGGCACT | 0.0818 |
| AAGCAATT | 0.244 |
| AGATGTGA | -0.00263 |
| TATGAAGA | 0.184 |
| GCATTTTA | 0.12 |
| CTTACGCC | -0.0367 |
| TACATCGA | -0.0985 |

A second format for some results above.
Sequence,PBM E-score
ACTCGAGC,-0.103
AAACTGAG,-0.0387
ATCGTGAC,0.0587
GAGGTTAA,0.00325
ACGCTACC,-0.246
CATCGACC,0.00819

More entries

| Sequence | PBM E-score |
| --- | --- |
| ATCGGGTA | -0.0845 |
| CCAGTTCG | 0.00522 |
| AGGAATCC | -0.0673 |
| ATCGAAAC | 0.212 |
| GTACCAAC | 0.114 |
| CCTGCGCA | -0.316 |
| GCCTAAAA | -0.0985 |
| CAGGCCCA | -0.211 |
| ACGCTGAC | -0.00324 |
| CCGTCCTA | -0.23 |
| ACAGCTAT | -0.241 |
| ACGCGTTG | -0.036 |
| GCTGTTAA | 0.129 |
| CAGTGACG | 0.0319 |
| AGACAGGC | -0.135 |
| AAGGTCCT | -0.162 |
| ATACACGA | 0.104 |
| AATCGAGT | 0.0164 |
| CATACATA | 0.0905 |
| AATAACGA | 0.068 |
| CGATACCC | -0.221 |
| AGTGTTCG | 0.128 |
| CCACCACC | -0.095 |
| AATTGAAT | 0.162 |
| GTGACCCA | -0.0367 |

| Sequence | PBM E-score |
| --- | --- |
| CTACCACC | -0.295 |
| CGTGCACG | 0.0593 |
| ATCCGCGG | 0.359 |
| CGACCACC | -0.216 |
| GATGTTTA | 0.101 |
| ATAATAGA | 0.116 |
| AATCTAGC | -0.217 |
| TAGCATCA | -0.0197 |
| TCCCAAAA | 0.0904 |
| GCATCAGC | 0.0495 |
| CTCCGTTC | 0.239 |
| CACAGACC | 0.101 |
| CAAGCAGG | -0.19 |
| ACGGCCAA | 0.192 |
| CGTCTCGC | -0.133 |
| AGCAACTC | -0.0433 |
| AATCTGAA | -0.035 |
| CCTTACGA | -0.0958 |
| ATCTCTAA | 0.153 |
| TCATAACA | 0.162 |
| ATTTATCC | 0.314 |
| TAAAATTA | 0.341 |
| AGAACCCG | -0.0418 |
| CACATAGA | 0.0291 |
| ACAGATCA | -0.0248 |

| Sequence | PBM E-score |
| --- | --- |
| GGCGTGGA | -0.316 |
| CACTCTCA | -0.0888 |
| GAAATTAA | 0.337 |
| AAAGGCTC | -0.112 |
| ACCTCTTA | 0.0999 |
| TCTCACAA | 0.0454 |
| CTGATTCA | 0.0858 |
| CAGTTGGA | -0.171 |
| GACTATCA | -0.186 |
| CGTCGATA | -0.0853 |
| ATCAAAAC | 0.169 |
| ATCAGACC | -0.0234 |
| GATGTAGC | -0.205 |
| GGAAGTCC | 0.0479 |
| AATGAGCT | 0.0628 |
| ATCGCAAC | -0.0401 |
| AATATGCA | -0.0575 |
| ACTGGTCG | -0.161 |
| GACAGCAA | 0.0223 |
| CGGTAAAG | 0.314 |
| CTGGACCC | -0.25 |
| ACGATCTA | -0.216 |
| ACTCAAGC | 0.0281 |
| GATCGCAC | -0.0597 |
| CCCTGATA | -0.286 |

| Sequence | PBM E-score |
| --- | --- |
| GAAGAGTC | -0.0527 |
| CATTGCCC | -0.277 |
| ATGTTAAA | 0.146 |
| ACGGATGG | 0.0959 |
| ACGAGGGC | -0.2 |
| GCCTCATA | -0.0188 |
| AGTAATCC | 0.0412 |
| AGGGCGAG | -0.233 |
| GATTCCGA | 0.33 |
| AAACTAGT | 0.0141 |
| ATGAGCGC | 0.088 |
| CGCTCTTC | -0.217 |
| AAAGATTA | 0.226 |
| GGACAGAA | 0.0525 |
| ACTCGCCG | 0.131 |
| CATCCCGC | -0.0361 |
| GTACACCA | -0.145 |
| CAGACTCA | -0.0639 |
| ATACGAGG | -0.142 |
| AGCCGCGA | 0.133 |
| GGACGATA | -0.117 |
| CGTCGCGC | -0.102 |
| CGTTCAAC | 0.117 |
| CTTGCTGC | -0.16 |
| GATGCAAC | -0.132 |

2 consecutive records already listed:

| Sequence | PBM E-score |
| --- | --- |
| CATTGCCC | -0.277 |
| ATGTTAAA | 0.146 |

More records follow:

| Sequence | PBM E-score |
| --- | --- |
| ACCGTGAG | -0.158 |
| CTAGATCA | -0.183 |
| TTAAGGAA | 0.141 |
| ACACGAAG | 0.157 |
| AGGAAAGG | -0.078 |
| TCGCCTAA | -0.00862 |
| CCTAACAG | 0.11 |
| ACGTTATG | 0.0299 |
| CATGGCTA | -0.146 |
| GCTTATTA | 0.0913 |
| AACTCGAA | 0.0933 |
| AGCTCATC | -0.196 |
| GACGGGCA | -0.131 |
| CGCAGTAC | -0.191 |
| AGCGCTTC | 0.0494 |
| CAAAATGG | 0.0666 |
| CCCGAACG | 0.127 |
| TAACGGAA | 0.298 |
| ACCCGGGT | 0.299 |
| CACTTGGG | -0.151 |
| ACATGGTG | -0.0796 |
| AAGAGCAT | -0.17 |
